The results in this text go back to paper PMC4914337.

Protein sequences, listed by entry. Tags and fused reporters are not part of them. Residues count along the entry.
UniProt P10451, residues 17-314: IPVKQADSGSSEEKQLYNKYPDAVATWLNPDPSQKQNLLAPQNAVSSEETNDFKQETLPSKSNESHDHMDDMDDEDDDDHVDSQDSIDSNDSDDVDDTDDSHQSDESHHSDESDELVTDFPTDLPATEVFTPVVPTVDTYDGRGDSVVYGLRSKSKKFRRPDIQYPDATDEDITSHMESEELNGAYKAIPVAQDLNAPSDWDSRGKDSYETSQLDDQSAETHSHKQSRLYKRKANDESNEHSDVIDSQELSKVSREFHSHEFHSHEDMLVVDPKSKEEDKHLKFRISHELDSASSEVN
UniProt P08670: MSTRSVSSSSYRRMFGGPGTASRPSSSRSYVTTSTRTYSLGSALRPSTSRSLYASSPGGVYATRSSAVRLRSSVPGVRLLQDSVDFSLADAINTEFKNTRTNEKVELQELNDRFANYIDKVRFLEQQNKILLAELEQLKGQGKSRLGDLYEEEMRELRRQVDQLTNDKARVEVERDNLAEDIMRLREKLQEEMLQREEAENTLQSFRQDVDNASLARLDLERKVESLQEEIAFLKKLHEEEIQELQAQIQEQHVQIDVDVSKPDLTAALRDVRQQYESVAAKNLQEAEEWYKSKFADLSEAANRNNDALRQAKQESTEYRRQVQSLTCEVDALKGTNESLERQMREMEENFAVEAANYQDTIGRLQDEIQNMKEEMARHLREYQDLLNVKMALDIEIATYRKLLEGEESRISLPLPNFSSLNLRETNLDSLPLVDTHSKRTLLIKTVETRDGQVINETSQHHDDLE

For the assay, the target named is Flag-OPN (osteopontin) produced in Hep3B cells (UniProt P10451). Description: affinity purification with mass spectrometry; Flag-OPN expressed in Hep3B cells (empty vector as control); lysate in RIPA buffer on M2 anti-Flag mAb agarose beads; SDS-PAGE, Coomassie blue staining, band of interest cut out for MS.

Results are given in words; binding and its absence hold for the method and conditions named. Binding seen in cells or lysates may run through a third protein. A yes stands for co-enrichment or nearness to the bait. Other partners may have been found.

“vimentin, endogenous in Hep3B cells (from UniProt P08670 1-466)”: the binding entry is recorded as “binds”.
